Results on two molecules are retold here after PMC5309953.

These are yes or no findings as the source states them, for the method shown. Binding seen in cells or lysates may run through a third protein. Some binding calls cover weakened binding; strength is not graded here.

For assay [1], the target named is GFP-IRAV (IRAV with an amino-terminal green fluorescent protein fusion) (human) (UniProt Q9NUL5). Put plainly: co-IP; HEK293 cells overexpressing GFP-IRAV; lysates treated with RNase A, then IP with an antibody to GFP, Western blot for MOV10, UPF1, HuR.
Assay [2] shares this target. Put plainly: co-IP; HEK293 cells, uninfected or DENV-infected, transfected with GFP-IRAV (GFP-CAT as control); IP of lysates with an antibody to GFP, Western blot for the partner.

B1: UPF1 (enzyme, UniProt Q92900 1-1129)
chain: MSVEAYGPSSQTLTFLDTEEAELLGADTQGSEFEFTDFTLPSQTQTPPGGPGGPGGGGAGGPGGAGAGAAAGQLDAQVGPEGILQNGAVDDSVAKTSQLLAELNFEEDEEDTYYTKDLPIHACSYCGIHDPACVVYCNTSKKWFCNGRGNTSGSHIVNHLVRAKCKEVTLHKDGPLGETVLECYNCGCRNVFLLGFIPAKADSVVVLLCRQPCASQSSLKDINWDSSQWQPLIQDRCFLSWLVKIPSEQEQLRARQITAQQINKLEELWKENPSATLEDLEKPGVDEEPQHVLLRYEDAYQYQNIFGPLVKLEADYDKKLKESQTQDNITVRWDLGLNKKRIAYFTLPKTDSGNEDLVIIWLRDMRLMQGDEICLRYKGDLAPLWKGIGHVIKVPDNYGDEIAIELRSSVGAPVEVTHNFQVDFVWKSTSFDRMQSALKTFAVDETSVSGYIYHKLLGHEVEDVIIKCQLPKRFTAQGLPDLNHSQVYAVKTVLQRPLSLIQGPPGTGKTVTSATIVYHLARQGNGPVLVCAPSNIAVDQLTEKIHQTGLKVVRLCAKSREAIDSPVSFLALHNQIRNMDSMPELQKLQQLKDETGELSSADEKRYRALKRTAERELLMNADVICCTCVGAGDPRLAKMQFRSILIDESTQATEPECMVPVVLGAKQLILVGDHCQLGPVVMCKKAAKAGLSQSLFERLVVLGIRPIRLQVQYRMHPALSAFPSNIFYEGSLQNGVTAADRVKKGFDFQWPQPDKPMFFYVTQGQEEIASSGTSYLNRTEAANVEKITTKLLKAGAKPDQIGIITPYEGQRSYLVQYMQFSGSLHTKLYQEVEIASVDAFQGREKDFIILSCVRANEHQGIGFLNDPRRLNVALTRARYGVIIVGNPKALSKQPLWNHLLNYYKEQKVLVEGPLNNLRESLMQFSKPRKLVNTINPGARFMTTAMYDAREAIIPGSVYDRSSQGRPSSMYFQTHDQIGMISAGPSHVAAMNIPIPFNLVMPPMPPPGYFGQANGPAAGRGTPKGKTGRGGRQKNRFGLPGPSQTNLPNSQASQDVASQPFSQGALTQGYISMSQPSQMSQPGLSQPELSQDSYLGDEFKSQIDVALSQDSTYQGERAYQHGGVTGLSQY
Regarding B1, the binding entry in assay [1] and in assay [2] was “binds” throughout.

B2: MOV10 (RISC complex RNA helicase) (enzyme, UniProt Q9HCE1 1-1003)
chain: MPSKFSCRQLREAGQCFESFLVVRGLDMETDRERLRTIYNRDFKISFGTPAPGFSSMLYGMKIANLAYVTKTRVRFFRLDRWADVRFPEKRRMKLGSDISKHHKSLLAKIFYDRAEYLHGKHGVDVEVQGPHEARDGQLLIRLDLNRKEVLTLRLRNGGTQSVTLTHLFPLCRTPQFAFYNEDQELPCPLGPGECYELHVHCKTSFVGYFPATVLWELLGPGESGSEGAGTFYIARFLAAVAHSPLAAQLKPMTPFKRTRITGNPVVTNRIEEGERPDRAKGYDLELSMALGTYYPPPRLRQLLPMLLQGTSIFTAPKEIAEIKAQLETALKWRNYEVKLRLLLHLEELQMEHDIRHYDLESVPMTWDPVDQNPRLLTLEVPGVTESRPSVLRGDHLFALLSSETHQEDPITYKGFVHKVELDRVKLSFSMSLLSRFVDGLTFKVNFTFNRQPLRVQHRALELTGRWLLWPMLFPVAPRDVPLLPSDVKLKLYDRSLESNPEQLQAMRHIVTGTTRPAPYIIFGPPGTGKTVTLVEAIKQVVKHLPKAHILACAPSNSGADLLCQRLRVHLPSSIYRLLAPSRDIRMVPEDIKPCCNWDAKKGEYVFPAKKKLQEYRVLITTLITAGRLVSAQFPIDHFTHIFIDEAGHCMEPESLVAIAGLMEVKETGDPGGQLVLAGDPRQLGPVLRSPLTQKHGLGYSLLERLLTYNSLYKKGPDGYDPQFITKLLRNYRSHPTILDIPNQLYYEGELQACADVVDRERFCRWAGLPRQGFPIIFHGVMGKDEREGNSPSFFNPEEAATVTSYLKLLLAPSSKKGKARLSPRSVGVISPYRKQVEKIRYCITKLDRELRGLDDIKDLKVGSVEEFQGQERSVILISTVRSSQSFVQLDLDFNLGFLKNPKRFNVAVTRAKALLIIVGNPLLLGHDPDWKVFLEFCKENGGYTGCPFPAKLDLQQGQNLLQGLSKLSPSTSGPHSHDYLPQEREGEGGLSLQVEPEWRNEL
Consider B2, for which the binding result in assay [1] and in assay [2] was “binds” each time.
